This note sets out measurements from PMC10891346.

By UniProt entry, the sequences of proteins in these tests, tags left out.
UniProt P01375: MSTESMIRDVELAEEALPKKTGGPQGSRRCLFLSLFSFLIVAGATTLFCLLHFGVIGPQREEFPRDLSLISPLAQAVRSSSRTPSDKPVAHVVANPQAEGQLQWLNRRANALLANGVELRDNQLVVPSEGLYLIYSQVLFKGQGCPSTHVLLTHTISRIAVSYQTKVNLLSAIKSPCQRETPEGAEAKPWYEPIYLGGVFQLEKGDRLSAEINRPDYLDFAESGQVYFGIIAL

Results are given in words; binding and its absence hold for the method and conditions named. In cells and extracts the contact can be indirect. Some results given as binding are weak or reduced against the parent protein; the word gives no strength. Where a sequence is shown, tags or fusion partners need not be part of it.

The target of test [1] is T1, FLAG sequence-tagged Syx6 (FL-Syx6) (human) (UniProt O43752).
T1 sequence: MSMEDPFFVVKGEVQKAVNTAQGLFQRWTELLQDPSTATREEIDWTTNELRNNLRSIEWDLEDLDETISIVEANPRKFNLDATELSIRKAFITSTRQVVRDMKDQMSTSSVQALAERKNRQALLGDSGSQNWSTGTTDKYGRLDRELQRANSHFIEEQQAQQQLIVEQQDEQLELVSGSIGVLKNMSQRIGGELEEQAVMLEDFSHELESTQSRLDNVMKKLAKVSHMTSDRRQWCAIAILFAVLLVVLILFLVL
Briefly: co-IP.

Test [2] has as its target T1, FLAG sequence-tagged Syx6 (FL-Syx6) (human). Briefly: co-IP; immunoisolation of the membrane-bound fraction (no detergent) of cotransfected 293T cells after sonication and equilibrium flotation centrifugation, with anti-FLAG or anti-HA mAb; western blotting. In general terms: Immunoblotting shows a protein as a band on a membrane.
Test [3] deals with T2, FLAG-tagged R-SNARE (FL-VAMP4) (UniProt O75379).
T2 sequence: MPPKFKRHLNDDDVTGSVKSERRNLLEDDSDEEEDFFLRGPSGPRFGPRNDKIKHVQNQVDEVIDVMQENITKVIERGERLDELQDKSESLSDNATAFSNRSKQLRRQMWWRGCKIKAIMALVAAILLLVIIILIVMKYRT
Briefly: co-IP; FL-VAMP4 coexpressed together with Myc-Syx16, Myc-Vti1a and Myc-Syx6 in 293T cells; anti-FLAG immunoprecipitation; high stringent wash conditions (>1% TritonX-100).

Test [4] has as its target HA sequence-tagged TNFα (HA-TNFα) (UniProt P01375). Briefly: co-IP; 293T cells cotransfected with the two tagged constructs; lysis buffer 50 mM HEPES pH 7.4, 150 mM NaCl, 1.5 mM MgCl2, 1 mM EGTA, 1% Triton X-100, 10% glycerol, 1 mM DTT; immunoprecipitation with anti-FLAG or anti-HA mAb and protein G-sepharose; western blotting.
Test [5] has the same target. Briefly: pull-down; FLAG and HA tag pulldown: HA-TNFα immunoprecipitated on anti-HA mAb/protein G-sepharose beads and incubated with 293T lysates expressing FLAG-tagged Syx6 fragments; reversely FLAG-tagged Syx6 fragments on anti-FLAG mAb-immobilized beads incubated with lysate expressing HA-TNFα; only the target purified.
Test [6] shares this target. Briefly: co-IP.
The target is the same in test [7]. Briefly: co-IP; immunoisolation of the membrane-bound fraction (no detergent) of cotransfected 293T cells after sonication and equilibrium flotation centrifugation, with anti-FLAG or anti-HA mAb; western blotting.

Regarding “HA sequence-tagged TNFα (HA-TNFα) (from UniProt P01375 1-233)”, the binding result in test [1] and in test [2] was “binds” in each case.

B1: Myc-tagged Vti1a (Qb-SNARE) (protein, UniProt Q96AJ9 1-217)
chain: MSSDFEGYEQDFAVLTAEITSKIARVPRLPPDEKKQMVANVEKQLEEAKELLEQMDLEVREIPPQSRGMYSNRMRSYKQEMGKLETDFKRSRIAYSDEVRNELLGDDGNSSENQRAHLLDNTERLERSSRRLEAGYQIAVETEQIGQEMLENLSHDREKIQRARERLRETDANLGKSSRILTGMLRRIIQNRILLVILGIIVVITILMAITFSVRRH
In the case of B1, in test [3], the binding entry is given as “binds”.

B2: FLAG-tagged C-terminal domain of Syx6 (FL-Syx6C) (domain or fragment, UniProt O43752 117-255)
chain: RKNRQALLGDSGSQNWSTGTTDKYGRLDRELQRANSHFIEEQQAQQQLIVEQQDEQLELVSGSIGVLKNMSQRIGGELEEQAVMLEDFSHELESTQSRLDNVMKKLAKVSHMTSDRRQWCAIAILFAVLLVVLILFLVL
Turning to B2, the binding result in test [4] and in test [5] was “binds” each time.

B3: Syntaxin6 tagged with the Myc sequence at the N-terminus (Myc-Syx6) (protein, UniProt O43752 1-255)
chain: T1 sequence
For the molecule B3, the binding result in test [3] is reported as “binds”.

B4: FLAG sequence-tagged Syx6 (FL-Syx6) (protein, UniProt O43752 1-255)
chain: T1 sequence
For B4, the binding result in test [6], in test [5] and in test [7] was “binds” throughout.
